Literature values, collected in patent US20160058753A1, “Nalmefene for Treatment of Patients with Mood Disorder” (H. LUNDBECK A/S, priority 2013, published 2016).
At least one structure is not confirmed: it was looked up by name or label, or the drawing left a doubt.

Tested on: patients with comorbid bipolar disorders
Conditions: literature; cited from earlier work

SMILES | efficacy on measures of alcohol use and dependence
CCCC(CCC)C(=O)O [valproate] | appear to be effective
[Li] [lithium] | appear to be effective
